The target in this test is PDZ domain (of PICK1) (rat) (UniProt Q9EP80). Nature of the test: pull-down; about 20 ug PDZ domain on Ni2+-NTA agarose beads mixed with 0, 25, 50, 100 ug soluble BARc in 500 ul buffer, 2 h at 4 °C; washed five times with 50 mM Tris-HCl, 150 mM NaCl, 5 mM imidazole, pH 7.5; SDS-PAGE; both purified.

Protein sequences, listed by entry. Tags and fused reporters are not part of them. Residues count along the entry.
PDZ domain (of PICK1) (Q9EP80, residues 22-105): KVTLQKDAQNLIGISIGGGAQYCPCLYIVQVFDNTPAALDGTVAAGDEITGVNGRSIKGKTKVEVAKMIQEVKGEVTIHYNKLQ
C-terminal BARc region (amino acids 128–416) of rat PICK1 (Q9EP80, residues 128-416): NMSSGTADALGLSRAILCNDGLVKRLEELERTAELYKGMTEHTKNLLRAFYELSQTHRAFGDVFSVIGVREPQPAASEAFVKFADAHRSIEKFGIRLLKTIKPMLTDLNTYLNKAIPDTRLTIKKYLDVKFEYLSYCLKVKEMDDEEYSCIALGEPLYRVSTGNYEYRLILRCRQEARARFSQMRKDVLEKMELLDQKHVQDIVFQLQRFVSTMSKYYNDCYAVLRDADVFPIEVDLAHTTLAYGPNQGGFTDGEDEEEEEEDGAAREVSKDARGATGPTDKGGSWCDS

Results are given in words; binding and its absence hold for the method and conditions named. Some binding calls cover weakened binding; strength is not graded here.

As to “C-terminal BARc region (amino acids 128–416) of rat PICK1 (from UniProt Q9EP80 128-416) (domain or fragment)”, the binding entry was “binds”.

Values taken from PMC2662470.
